# Measured values published in the supplement of paper PMC12819154, “High-throughput peptide-centric local stability assay extends protein–ligand identification to membrane proteins, tissues and bacteria” (Nature Structural & Molecular Biology, 2025).
# Amino acid sequences for entries named in this document (tags omitted). A change or cut given only in a name is not applied to a line headed by its entry.
# UniProt P39409: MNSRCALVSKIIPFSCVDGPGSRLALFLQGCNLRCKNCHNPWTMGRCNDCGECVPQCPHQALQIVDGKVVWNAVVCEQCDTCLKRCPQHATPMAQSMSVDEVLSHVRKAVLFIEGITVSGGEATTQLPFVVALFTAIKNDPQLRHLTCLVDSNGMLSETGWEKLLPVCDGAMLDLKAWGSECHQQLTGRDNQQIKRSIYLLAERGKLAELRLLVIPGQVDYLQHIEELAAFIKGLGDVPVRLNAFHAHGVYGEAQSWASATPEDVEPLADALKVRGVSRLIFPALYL
# UniProt P39358: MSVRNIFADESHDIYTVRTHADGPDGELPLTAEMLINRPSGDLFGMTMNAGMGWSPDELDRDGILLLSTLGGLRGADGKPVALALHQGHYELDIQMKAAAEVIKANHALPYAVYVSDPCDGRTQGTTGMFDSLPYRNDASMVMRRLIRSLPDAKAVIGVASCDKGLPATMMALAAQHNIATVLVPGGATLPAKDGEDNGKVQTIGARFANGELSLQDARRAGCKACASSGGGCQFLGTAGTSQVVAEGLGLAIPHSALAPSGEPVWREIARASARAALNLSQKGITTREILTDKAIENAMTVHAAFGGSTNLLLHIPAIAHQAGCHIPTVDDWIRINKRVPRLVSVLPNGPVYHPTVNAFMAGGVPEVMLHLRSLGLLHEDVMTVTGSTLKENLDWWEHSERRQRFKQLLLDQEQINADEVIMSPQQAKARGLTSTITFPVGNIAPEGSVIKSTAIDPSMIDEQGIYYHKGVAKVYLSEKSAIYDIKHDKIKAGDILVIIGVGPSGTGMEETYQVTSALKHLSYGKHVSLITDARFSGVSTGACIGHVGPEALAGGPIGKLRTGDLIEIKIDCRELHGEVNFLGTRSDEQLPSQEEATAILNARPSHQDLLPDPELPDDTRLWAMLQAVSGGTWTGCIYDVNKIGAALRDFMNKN
# UniProt P46855: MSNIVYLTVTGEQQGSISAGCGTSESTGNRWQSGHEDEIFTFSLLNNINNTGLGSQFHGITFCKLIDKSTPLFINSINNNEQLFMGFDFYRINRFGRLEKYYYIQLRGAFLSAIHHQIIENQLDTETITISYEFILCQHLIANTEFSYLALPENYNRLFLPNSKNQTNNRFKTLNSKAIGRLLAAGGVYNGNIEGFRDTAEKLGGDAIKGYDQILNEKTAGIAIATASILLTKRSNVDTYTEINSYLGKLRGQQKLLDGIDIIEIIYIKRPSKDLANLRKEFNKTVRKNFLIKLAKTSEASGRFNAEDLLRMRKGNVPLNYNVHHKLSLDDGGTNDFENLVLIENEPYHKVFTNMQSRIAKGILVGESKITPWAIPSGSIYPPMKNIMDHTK
# UniProt P45544: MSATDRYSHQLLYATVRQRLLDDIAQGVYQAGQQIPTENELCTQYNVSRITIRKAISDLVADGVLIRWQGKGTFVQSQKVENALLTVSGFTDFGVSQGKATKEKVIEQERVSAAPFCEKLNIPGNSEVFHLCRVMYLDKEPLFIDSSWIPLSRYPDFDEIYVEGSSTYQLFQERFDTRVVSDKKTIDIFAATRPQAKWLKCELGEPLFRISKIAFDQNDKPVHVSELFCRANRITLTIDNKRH
# UniProt P46852: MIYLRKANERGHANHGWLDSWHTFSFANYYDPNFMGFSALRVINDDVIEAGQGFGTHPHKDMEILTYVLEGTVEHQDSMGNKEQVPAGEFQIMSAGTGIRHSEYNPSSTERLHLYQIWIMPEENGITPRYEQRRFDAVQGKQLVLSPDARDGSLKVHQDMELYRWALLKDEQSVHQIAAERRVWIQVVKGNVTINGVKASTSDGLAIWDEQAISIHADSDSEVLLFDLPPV
# UniProt P39831: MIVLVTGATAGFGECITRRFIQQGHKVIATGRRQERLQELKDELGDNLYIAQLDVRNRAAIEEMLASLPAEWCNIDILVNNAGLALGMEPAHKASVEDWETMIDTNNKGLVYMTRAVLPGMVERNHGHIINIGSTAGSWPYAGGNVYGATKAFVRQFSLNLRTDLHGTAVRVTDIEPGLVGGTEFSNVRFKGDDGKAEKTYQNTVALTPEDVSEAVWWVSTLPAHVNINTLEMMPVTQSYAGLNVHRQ
# UniProt P64474: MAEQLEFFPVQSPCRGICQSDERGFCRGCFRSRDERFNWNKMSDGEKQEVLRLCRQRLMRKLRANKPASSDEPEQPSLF
# UniProt P43674: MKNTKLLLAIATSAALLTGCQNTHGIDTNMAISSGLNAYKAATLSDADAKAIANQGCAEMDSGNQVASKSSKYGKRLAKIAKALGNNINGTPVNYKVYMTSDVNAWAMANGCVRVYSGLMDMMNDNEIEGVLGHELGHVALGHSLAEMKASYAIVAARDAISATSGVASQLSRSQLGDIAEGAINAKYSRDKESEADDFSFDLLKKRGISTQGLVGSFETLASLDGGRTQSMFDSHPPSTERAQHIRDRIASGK
# UniProt P42616: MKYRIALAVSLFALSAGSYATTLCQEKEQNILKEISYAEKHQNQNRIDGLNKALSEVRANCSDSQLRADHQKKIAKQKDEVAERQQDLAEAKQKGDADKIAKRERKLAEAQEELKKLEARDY
# UniProt P50456: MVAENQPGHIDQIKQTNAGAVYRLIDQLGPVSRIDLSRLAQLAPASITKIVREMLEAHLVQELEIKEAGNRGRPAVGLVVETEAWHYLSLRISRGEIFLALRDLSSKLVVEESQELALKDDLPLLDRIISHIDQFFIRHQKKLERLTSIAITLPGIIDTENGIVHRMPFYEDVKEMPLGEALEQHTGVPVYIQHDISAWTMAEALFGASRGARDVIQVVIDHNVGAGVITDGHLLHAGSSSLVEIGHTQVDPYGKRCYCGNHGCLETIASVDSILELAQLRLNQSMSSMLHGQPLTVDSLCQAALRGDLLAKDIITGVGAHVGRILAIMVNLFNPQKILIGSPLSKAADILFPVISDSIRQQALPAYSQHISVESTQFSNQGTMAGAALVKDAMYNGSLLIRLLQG
# UniProt P52106: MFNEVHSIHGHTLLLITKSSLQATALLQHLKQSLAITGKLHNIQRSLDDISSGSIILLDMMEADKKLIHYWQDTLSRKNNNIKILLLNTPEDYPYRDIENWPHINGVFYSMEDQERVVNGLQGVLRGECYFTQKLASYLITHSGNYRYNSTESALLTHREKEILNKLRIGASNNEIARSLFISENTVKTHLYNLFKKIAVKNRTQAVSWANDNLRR
# UniProt P54901: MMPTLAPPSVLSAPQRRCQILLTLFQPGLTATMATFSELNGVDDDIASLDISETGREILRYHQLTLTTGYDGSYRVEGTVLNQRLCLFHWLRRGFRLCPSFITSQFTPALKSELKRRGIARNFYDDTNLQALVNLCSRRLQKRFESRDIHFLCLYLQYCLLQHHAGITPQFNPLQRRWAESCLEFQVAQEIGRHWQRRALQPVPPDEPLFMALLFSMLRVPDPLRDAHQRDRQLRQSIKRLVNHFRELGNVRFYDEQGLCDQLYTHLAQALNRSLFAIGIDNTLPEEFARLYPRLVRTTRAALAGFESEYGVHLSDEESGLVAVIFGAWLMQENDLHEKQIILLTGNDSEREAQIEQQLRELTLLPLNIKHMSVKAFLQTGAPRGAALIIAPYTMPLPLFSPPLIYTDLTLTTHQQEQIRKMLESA
# UniProt P52076: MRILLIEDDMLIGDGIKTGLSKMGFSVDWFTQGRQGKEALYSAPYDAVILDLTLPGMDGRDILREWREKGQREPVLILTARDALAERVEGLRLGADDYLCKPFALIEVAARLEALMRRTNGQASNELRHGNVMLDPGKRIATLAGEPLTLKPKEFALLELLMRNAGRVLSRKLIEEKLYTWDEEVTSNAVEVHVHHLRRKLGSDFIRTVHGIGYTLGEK
# UniProt P52095: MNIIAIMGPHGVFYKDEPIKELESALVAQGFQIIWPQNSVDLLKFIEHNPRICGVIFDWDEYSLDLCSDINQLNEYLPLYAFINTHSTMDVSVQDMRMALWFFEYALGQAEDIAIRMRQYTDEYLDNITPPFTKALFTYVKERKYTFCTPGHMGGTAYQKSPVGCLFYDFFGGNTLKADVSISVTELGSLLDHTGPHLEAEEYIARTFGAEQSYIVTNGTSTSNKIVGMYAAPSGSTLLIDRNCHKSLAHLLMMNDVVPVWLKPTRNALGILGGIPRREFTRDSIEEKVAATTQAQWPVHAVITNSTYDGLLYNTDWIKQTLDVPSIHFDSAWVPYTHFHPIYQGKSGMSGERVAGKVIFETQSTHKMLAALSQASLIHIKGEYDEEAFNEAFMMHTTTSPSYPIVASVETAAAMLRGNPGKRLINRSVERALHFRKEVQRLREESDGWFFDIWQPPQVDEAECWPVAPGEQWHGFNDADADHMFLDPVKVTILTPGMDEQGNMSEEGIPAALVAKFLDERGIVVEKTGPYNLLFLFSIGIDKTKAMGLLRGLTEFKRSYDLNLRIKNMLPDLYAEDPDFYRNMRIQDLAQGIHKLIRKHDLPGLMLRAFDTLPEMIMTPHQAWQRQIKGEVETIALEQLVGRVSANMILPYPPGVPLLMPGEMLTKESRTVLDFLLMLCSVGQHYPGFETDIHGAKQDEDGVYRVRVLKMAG
# UniProt P45469: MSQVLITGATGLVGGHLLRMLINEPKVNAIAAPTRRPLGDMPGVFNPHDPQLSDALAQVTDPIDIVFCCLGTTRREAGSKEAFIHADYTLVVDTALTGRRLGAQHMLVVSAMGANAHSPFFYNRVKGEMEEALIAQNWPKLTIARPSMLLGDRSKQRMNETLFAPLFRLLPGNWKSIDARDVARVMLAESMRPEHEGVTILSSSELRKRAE
# UniProt P42597: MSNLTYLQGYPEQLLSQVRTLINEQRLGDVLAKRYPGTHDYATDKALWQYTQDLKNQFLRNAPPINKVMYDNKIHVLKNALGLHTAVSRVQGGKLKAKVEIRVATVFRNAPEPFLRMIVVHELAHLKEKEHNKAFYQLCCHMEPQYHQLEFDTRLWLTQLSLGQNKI
# UniProt P39377: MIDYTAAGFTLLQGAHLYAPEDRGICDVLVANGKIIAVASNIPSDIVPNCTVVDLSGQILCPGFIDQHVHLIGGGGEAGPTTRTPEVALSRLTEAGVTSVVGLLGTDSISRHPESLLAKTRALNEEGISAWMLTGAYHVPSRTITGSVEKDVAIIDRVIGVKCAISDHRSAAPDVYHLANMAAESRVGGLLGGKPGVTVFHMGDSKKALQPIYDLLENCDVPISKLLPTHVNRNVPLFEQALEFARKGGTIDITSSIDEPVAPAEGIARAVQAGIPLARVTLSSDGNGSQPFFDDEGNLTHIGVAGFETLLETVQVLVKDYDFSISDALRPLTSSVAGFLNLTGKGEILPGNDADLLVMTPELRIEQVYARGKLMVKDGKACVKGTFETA
# UniProt P52052: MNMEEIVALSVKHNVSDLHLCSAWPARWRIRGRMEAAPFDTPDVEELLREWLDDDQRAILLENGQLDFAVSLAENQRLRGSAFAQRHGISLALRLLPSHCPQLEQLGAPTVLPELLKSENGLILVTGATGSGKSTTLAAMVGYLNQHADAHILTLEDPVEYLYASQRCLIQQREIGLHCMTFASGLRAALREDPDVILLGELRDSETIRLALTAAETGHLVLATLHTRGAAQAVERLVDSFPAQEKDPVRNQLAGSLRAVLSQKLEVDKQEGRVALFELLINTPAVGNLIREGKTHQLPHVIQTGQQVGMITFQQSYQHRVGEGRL
# UniProt P56614: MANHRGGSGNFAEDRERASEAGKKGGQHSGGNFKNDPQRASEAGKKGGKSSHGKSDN
# UniProt P45394: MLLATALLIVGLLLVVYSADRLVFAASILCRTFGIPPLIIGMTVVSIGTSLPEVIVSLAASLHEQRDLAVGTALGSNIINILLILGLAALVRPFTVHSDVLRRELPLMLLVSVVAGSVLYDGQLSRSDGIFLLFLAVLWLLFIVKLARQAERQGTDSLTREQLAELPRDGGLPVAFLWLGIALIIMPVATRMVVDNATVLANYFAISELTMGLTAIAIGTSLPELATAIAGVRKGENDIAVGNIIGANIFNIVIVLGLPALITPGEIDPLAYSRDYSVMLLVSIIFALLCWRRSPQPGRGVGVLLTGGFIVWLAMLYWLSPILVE
# UniProt P39376: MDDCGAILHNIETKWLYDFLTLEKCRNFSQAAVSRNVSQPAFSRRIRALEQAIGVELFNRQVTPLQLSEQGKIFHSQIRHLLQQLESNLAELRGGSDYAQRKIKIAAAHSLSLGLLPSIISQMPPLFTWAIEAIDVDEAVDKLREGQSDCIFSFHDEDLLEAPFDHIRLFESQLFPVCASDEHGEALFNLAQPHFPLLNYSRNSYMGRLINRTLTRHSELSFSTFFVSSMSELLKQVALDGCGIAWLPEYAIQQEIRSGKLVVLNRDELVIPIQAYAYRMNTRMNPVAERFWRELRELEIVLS
# UniProt P52044: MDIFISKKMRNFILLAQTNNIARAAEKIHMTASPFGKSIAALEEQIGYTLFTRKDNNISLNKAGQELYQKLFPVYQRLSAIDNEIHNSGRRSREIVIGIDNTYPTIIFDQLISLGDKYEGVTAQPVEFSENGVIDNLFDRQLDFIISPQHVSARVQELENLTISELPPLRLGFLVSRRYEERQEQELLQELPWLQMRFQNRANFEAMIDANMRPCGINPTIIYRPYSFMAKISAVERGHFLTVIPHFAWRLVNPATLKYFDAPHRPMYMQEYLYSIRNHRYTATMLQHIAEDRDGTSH
# This is a selection; strong and weak results do not stand in their true shares. Most entries show no effect beyond the scatter of the controls.
# Compound: Nc1ncnc2c1ncn2[C@@H]1O[C@H](COP(=O)(O)OP(=O)(O)OP(=O)(O)O)[C@@H](O)[C@H]1O [adenosine 5'-triphosphate]
# Assay: log2 fold change of tryptic peptide abundance, ligand vs vehicle (limited proteolysis) (log2 ratio); higher = more trypsin-susceptible (destabilized)
# Details: ligand concentration: 5 mM; sample: E. coli desalted lysate; replicate design: treated before aliquoting
# Procedure: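 HT-PELSA: desalted E. coli K-12 BW25113 lysate (with 12 mM MgCl2) incubated with 5 mM ATP (pH 7) or water for 30 min at 25 C, then a 4 min trypsin pulse at 22 C. Peptides were quantified by DIA-MS (4 replicates). Value is the peptide log2 fold change (treated/control); negative = stabilized. Scale: negative = ligand-stabilized region.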
# 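Also: lysate desalted by size exclusion to strip endogenous ATP, peptide intensities built from DIA-NN precursor signals, and peptides missing any value discarded before comparison.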
row,Target,log2 fold change
1,"UniProt P39409 (peptide sequence: DNQQIKR, peptide start residue: 190)",-0.63
2,"UniProt P39358 (peptide sequence: NIFADESHDIYTVR, peptide start residue: 5)",0.185
3,"UniProt P46855 (peptide sequence: LGGDAIK, peptide start residue: 203)",-0.0419
4,"UniProt P45544 (peptide sequence: AISDLVADGVLIR, peptide start residue: 55)",-0.218
5,"UniProt P46853 (peptide sequence: GLTVTPYQNR, peptide start residue: 116)",0.385
6,"UniProt P52645 (peptide sequence: LPGNDCPQGKECEEKQ, peptide start residue: 864)",0.98
7,"UniProt P39336 (peptide sequence: NQPDNVIKEK, peptide start residue: 539)",-0.404
8,"UniProt P45771 (peptide sequence: SSADGHIVK, peptide start residue: 49)",0.287
9,"UniProt P46852 (peptide sequence: RFDAVQGK, peptide start residue: 134)",0.503
10,"UniProt P39831 (peptide sequence: AVLPGMVER, peptide start residue: 116)",-0.175
11,"UniProt P64474 (peptide sequence: MSDGEKQEVLR, peptide start residue: 42)",-0.124
12,"UniProt P43674 (peptide sequence: AATLSDADAK, peptide start residue: 41)",0.166
13,"UniProt P45756 (peptide sequence: ILDDLQR, peptide start residue: 114)",0.329
14,"UniProt P45552 (peptide sequence: AVVDKHALLAHQQR, peptide start residue: 278)",-0.221
15,"UniProt P42616 (peptide sequence: ANCSDSQLR, peptide start residue: 59)",-0.125
16,"UniProt P45769 (peptide sequence: CINHLEEHQQGR, peptide start residue: 57)",-0.177
17,"UniProt P46068 (peptide sequence: MHTFEVAAR, peptide start residue: 20)",-0.169
18,"UniProt P58035 (peptide sequence: ILVACGTGMSTSTMIAHK, peptide start residue: 4)",-0.218
19,"UniProt P39360 (peptide sequence: KCAEQISYGLGYRNENEHLR, peptide start residue: 240)",-0.744
20,"UniProt P39838 (peptide sequence: KGLQLLINNHLK, peptide start residue: 547)",-0.274

# Some of the entries so far, with tabs.
row	Target	log2 fold change
15	UniProt P42616 (peptide sequence: ANCSDSQLR, peptide start residue: 59)	-0.125
16	UniProt P45769 (peptide sequence: CINHLEEHQQGR, peptide start residue: 57)	-0.177
17	UniProt P46068 (peptide sequence: MHTFEVAAR, peptide start residue: 20)	-0.169

# Continuation:

row,Target,log2 fold change
1,"UniProt P46474 (peptide sequence: TRGDSTPSSPFPTTER, peptide start residue: 971)",0.616
2,"UniProt P39346 (peptide sequence: FAGDKTQAAK, peptide start residue: 329)",-0.339
3,"UniProt P50456 (peptide sequence: LIDQLGPVSR, peptide start residue: 24)",0.402
4,"UniProt P52106 (peptide sequence: IGASNNEIAR, peptide start residue: 169)",-0.51
5,"UniProt P54901 (peptide sequence: RWAESCLEFQVAQEIGRHWQR, peptide start residue: 177)",0.895
6,"UniProt P45807 (peptide sequence: LTRDDEAEK, peptide start residue: 45)",-0.0801
7,"UniProt P42620 (peptide sequence: STGGKFQR, peptide start residue: 18)",0.465
8,"UniProt P52076 (peptide sequence: IATLAGEPLTLKPK, peptide start residue: 140)",0.654
9,"UniProt P52095 (peptide sequence: VIFETQSTHK, peptide start residue: 358)",-0.223
10,"UniProt P45469 (peptide sequence: VNAIAAPTR, peptide start residue: 27)",-0.364
11,"UniProt P46118 (peptide sequence: KIAFFGLGSSAAVAHDAMNK, peptide start residue: 130)",0.483
12,"UniProt P52074 (peptide sequence: NCETTCPSGVR, peptide start residue: 80)",-0.734
13,"UniProt P42597 (peptide sequence: RYPGTHDYATDK, peptide start residue: 34)",0.347
14,"UniProt P39377 (peptide sequence: AVQAGIPLAR, peptide start residue: 270)",-0.498
15,"UniProt P52052 (peptide sequence: EWLDDDQR, peptide start residue: 50)",-0.925
16,"UniProt P56614 (peptide sequence: GGSGNFAEDRER, peptide start residue: 6)",-0.00918
17,"UniProt P45394 (peptide sequence: QGTDSLTR, peptide start residue: 153)",0.163
18,"UniProt P39376 (peptide sequence: HLLQQLESNLAELR, peptide start residue: 80)",-0.507
19,"UniProt P39396 (peptide sequence: TDKETPYVPIPEGGVK, peptide start residue: 696)",-0.163
20,"UniProt P52044 (peptide sequence: LSAIDNEIHNSGRR, peptide start residue: 78)",-0.337
